# Reference: the supplement of paper PMC7024190
# The other results are listed elsewhere or left out. Single values are uncertain here, since repeats match poorly.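 The cells were human embryonic kidney cells carrying a Renilla luciferase gene, driven by the HSV-TK promoter, on a plasmid put in briefly by transfection. This is the first-round screen of about ten thousand compounds, looking for ones that raise reporter output.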
# System: HEK 293FT
# Assay: log relative Renilla luciferase luminescence (reporter expression vs reference, reference not stated) (log (base not stated)); higher = higher recombinant reporter expression
# Settings: 10 µM; time after transfection 48 h
# Protocol: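 HEK 293FT cells transiently transfected with pRL-TK (Renilla luciferase) were treated with compounds at 10 uM and luminescence was read about 42 h later. Values are log relative Renilla luminescence (log base and reference not stated). Single-pass screen; ICCB Known Bioactives library.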
row,SMILES,log
1,NCCc1c[nH]cn1 [Histamine],0.371
2,CC[C@@]1(O)C(=O)OCc2c1cc1n(c2=O)Cc2cc3cc(O)ccc3nc2-1 [10-Hydroxycamptothecin],-0.859
3,C[C@]12CC[C@@H]3c4ccc(O)cc4CC[C@H]3[C@@H]1CC[C@@H]2O [Estradiol],0.262
4,CC[C@]1(O)C[C@@H]2CN(CCc3c([nH]c4ccccc34)[C@@](C(=O)OC)(c3cc4c(cc3OC)N(C)[C@H]3[C@@](O)(C(=O)OC)[C@H](OC(C)=O)[C@]5(CC)C=CCN6CC[C@]43[C@@H]65)C2)C1 [Vinblastine],-0.248
5,CCCCC[C@H](O)/C=C/[C@@H]1[C@@H](C/C=C\CCCC(=O)O)[C@@H](O)C[C@H]1O [Prostaglandin F2a],-0.117
6,CCCCCCCC/C=C\C/C=C\C/C=C\CCCC(=O)NCCO [Mead ethanolamide],-0.174
7,CCCCCCCCCCCCC(O)C(=O)O (centres undefined) [2-Hydroxymyristic acid],-0.116
8,CCCCC/C=C\C\C=C/C=C/C=C/[C@@H](SC[C@H](N)C(=O)O)[C@@H](O)CCCC(=O)O [Leukotriene E4],-0.194
9,CC/C(=C(\c1ccccc1)c1ccc(OCCN(C)C)cc1)c1ccccc1 [Tamoxifen],-0.182
10,CCCCNc1cc(C(=O)O)cc(S(N)(=O)=O)c1Oc1ccccc1 [Bumetanide],-0.107
11,CC[C@H](CO)Nc1nc(NCc2ccccc2)c2ncn(C(C)C)c2n1 [Roscovitine],-1.66
12,COc1ccc(CCN(C)CCCC(C#N)(c2ccc(OC)c(OC)c2)C(C)C)cc1OC (centres undefined) [Verapamil],0.0279
13,COc1cc2c3cc1Oc1c(OC)c(OC)cc4c1[C@@H](Cc1ccc(OC(=O)c5ccc([N+](=O)[O-])cc5)c(c1)Oc1ccc(cc1)C[C@@H]3N(C)CC2)N(C)CC4 [E6 Berbamine],0.407
14,O=C(O)CCCC=CCC1C2CCC(O2)C1CNNC(=O)Nc1ccccc1 (centres undefined),-0.0896
15,"CCCCCCCCCCCCCCCC(=O)OCC(COP(=O)(O)O)OC(=O)CCCCCCCCCCCCCCC (centres undefined) [Phosphatidic acid, dipalmitoyl]",-0.0854
16,O=C(O)c1cc(N(Cc2ccccc2O)Cc2cc(O)ccc2O)ccc1O [Lavendustin A],0.32
17,CC/C=C\C/C=C\C/C=C\C/C=C\C/C=C\C/C=C\CCC(=O)O [Docosahexaenoic acid (22:6 n-3)],-0.256
18,CC(=N)NCc1cccc(CN)c1,0.255
19,CCCCC[C@H](O)/C=C/[C@@H]1[C@@H](CC(=O)CCCCC(=O)O)[C@@H](O)C[C@H]1O [6-Keto-prostaglandin F1a],-0.07
20,"CCCCC/C=C\C/C=C\CC1OC1C/C=C\CCCC(=O)O (centres undefined) [8,9-Epoxyeicosatrienoic acid]",-0.0206

row,SMILES,log
1,CCCCC[C@H](O)/C=C/[C@H]1C(=O)C=C[C@@H]1C/C=C\CCCC(=O)O [Prostaglandin J2],-0.173
2,CC(C)C[C@@H](C=O)NC(=O)[C@H](CC(C)C)NC(=O)[C@H](CC(C)C)NC(=O)OCc1ccccc1,-1.5
3,"CCCCC/C=C\C/C=C\C/C=C\CC1OC1CCCC(=O)O (centres undefined) [5,6-Epoxyeicosatrienoic acid]",0.0893
4,"O=Cc1c2[nH]c3ccccc3c2cc2[nH]c3ccccc3c12 [6-Formylindolo [3,2-B] carbazole]",0.218
5,Cn1c2ccccc2c2c3c(c4c5ccccc5n(CCC#N)c4c21)CNC3=O,-1.38
6,Clc1cccc(Cl)c1NC1=NCCN1 [Clonidine],0.0106
7,"CCCCC[C@H](O)/C=C/[C@@H]1[C@@H](C/C=C\CCCC(=O)O)[C@@H](O)C[C@@H]1O [9alpha,11beta-Prostaglandin F2]",-0.185
8,CCCCC[C@H](O)/C=C/[C@@H]1[C@H]2C/C(=C/CCCC(=O)O)C[C@H]2C[C@H]1O [Carbacyclin],0.238
9,CC1(C)CCC2=C(O1)c1ccccc1C(=O)C2=O [b-Lapachone],-1.8
10,C=C[C@H]1CN2CC[C@H]1C[C@@H]2[C@@H](O)c1ccnc2ccc(OC)cc12 [Quinidine],0.154
11,CCCCC/C=C\C[C@H](O)/C=C/C=C\C/C=C\CCCC(=O)O,0.125
12,CC(C)(Oc1ccc(CCNC(=O)c2ccc(Cl)cc2)cc1)C(=O)O [Bezafibrate],-0.433
13,Cc1ccc(S(=O)(=O)N[C@@H](Cc2ccccc2)C(=O)CCl)cc1 [Tosyl-Phe-CMK (TPCK)],-0.173
14,"C=C1/C(=C\C=C2/CCC[C@]3(C)[C@@H]([C@H](C)CCCC(C)(C)O)CC[C@@H]23)C[C@@H](O)C[C@@H]1O [1,25-Dihydroxyvitamin D3]",-0.495
15,"CCCCCC1OC1CC=CCC=CCC=CCCCC(=O)O (centres undefined) [14,15-Epoxyeicosatrienoic acid]",0.306
16,CCCCCCCCCCCCCCCC(=O)N[C@@H](COP(=O)(O)O)C(=O)O,-0.22
17,Cc1ccc(N(CC2=NCCN2)c2cccc(O)c2)cc1 [Phentolamine],-0.399
18,CC[N+](CC)(CC)CC(=O)Nc1c(C)cccc1C,0.217
19,CCCCC/C=C\C/C=C\CCCCCCCC(=O)NCC(=O)O [N-Linoleoylglycine],-0.198

# Looked up by compound from the list above, two records:
row,SMILES,log
4,"O=Cc1c2[nH]c3ccccc3c2cc2[nH]c3ccccc3c12 [6-Formylindolo [3,2-B] carbazole]",0.218
1,CCCCC[C@H](O)/C=C/[C@H]1C(=O)C=C[C@@H]1C/C=C\CCCC(=O)O [Prostaglandin J2],-0.173
